No constants are given. Whether binding was seen depends on the method and setting. In cells and extracts the contact can be indirect. Some entries that bind do so weakly or less than the wild type.
Tests used:
Test in all cases: co-IP; nuclear extracts of mouse embryonic cochleae (E14.5, E15.5 or E17.5), endogenous proteins; IP buffer 20 mM Tris-HCl pH 8.0, 150 mM NaCl, 0.1% NP-40, 10% glycerol; ~1 ug primary antibody overnight at 4°C, protein A/G beads; western blot
[1] = target: T1, CTCF (mouse (endogenous in cochlea)) (UniProt Q61164)
T1 sequence: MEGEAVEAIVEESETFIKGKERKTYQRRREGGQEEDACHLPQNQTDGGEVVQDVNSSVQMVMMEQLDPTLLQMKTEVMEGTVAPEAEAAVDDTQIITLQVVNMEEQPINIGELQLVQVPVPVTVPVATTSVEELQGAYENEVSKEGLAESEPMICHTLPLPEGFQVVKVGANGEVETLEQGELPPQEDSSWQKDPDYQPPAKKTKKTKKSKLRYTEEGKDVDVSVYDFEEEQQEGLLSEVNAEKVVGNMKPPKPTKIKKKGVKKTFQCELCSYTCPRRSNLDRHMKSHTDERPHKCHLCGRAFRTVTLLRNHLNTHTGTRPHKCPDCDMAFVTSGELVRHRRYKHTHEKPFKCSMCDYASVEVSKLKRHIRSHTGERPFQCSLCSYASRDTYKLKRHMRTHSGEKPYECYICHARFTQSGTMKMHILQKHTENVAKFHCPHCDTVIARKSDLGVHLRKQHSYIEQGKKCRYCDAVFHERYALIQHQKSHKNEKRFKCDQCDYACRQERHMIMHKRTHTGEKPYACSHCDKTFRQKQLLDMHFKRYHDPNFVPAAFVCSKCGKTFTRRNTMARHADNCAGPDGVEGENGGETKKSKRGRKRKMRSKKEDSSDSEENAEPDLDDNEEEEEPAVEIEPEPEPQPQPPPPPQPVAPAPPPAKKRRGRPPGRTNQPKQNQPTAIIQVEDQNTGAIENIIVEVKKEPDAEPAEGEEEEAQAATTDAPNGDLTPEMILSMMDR

By UniProt entry, the sequences of proteins in these tests, tags left out.
UniProt P70338: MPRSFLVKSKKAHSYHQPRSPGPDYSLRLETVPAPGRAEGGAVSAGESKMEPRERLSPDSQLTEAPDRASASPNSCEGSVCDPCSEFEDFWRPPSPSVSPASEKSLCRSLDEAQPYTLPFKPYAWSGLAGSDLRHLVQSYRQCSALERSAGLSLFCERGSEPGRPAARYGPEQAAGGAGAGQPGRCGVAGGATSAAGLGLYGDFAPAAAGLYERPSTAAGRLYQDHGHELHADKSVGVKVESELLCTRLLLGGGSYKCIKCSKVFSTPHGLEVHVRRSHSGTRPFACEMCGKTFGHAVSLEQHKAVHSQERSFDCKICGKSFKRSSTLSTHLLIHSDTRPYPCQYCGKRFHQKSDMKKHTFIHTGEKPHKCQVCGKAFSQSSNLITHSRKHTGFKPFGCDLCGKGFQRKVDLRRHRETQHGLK

[2] = target: Gfi1 (mouse (endogenous in cochlea)) (UniProt P70338)
[3] = target: T2, Rfx1 (mouse (endogenous in cochlea)) (UniProt P48377)
T2 sequence: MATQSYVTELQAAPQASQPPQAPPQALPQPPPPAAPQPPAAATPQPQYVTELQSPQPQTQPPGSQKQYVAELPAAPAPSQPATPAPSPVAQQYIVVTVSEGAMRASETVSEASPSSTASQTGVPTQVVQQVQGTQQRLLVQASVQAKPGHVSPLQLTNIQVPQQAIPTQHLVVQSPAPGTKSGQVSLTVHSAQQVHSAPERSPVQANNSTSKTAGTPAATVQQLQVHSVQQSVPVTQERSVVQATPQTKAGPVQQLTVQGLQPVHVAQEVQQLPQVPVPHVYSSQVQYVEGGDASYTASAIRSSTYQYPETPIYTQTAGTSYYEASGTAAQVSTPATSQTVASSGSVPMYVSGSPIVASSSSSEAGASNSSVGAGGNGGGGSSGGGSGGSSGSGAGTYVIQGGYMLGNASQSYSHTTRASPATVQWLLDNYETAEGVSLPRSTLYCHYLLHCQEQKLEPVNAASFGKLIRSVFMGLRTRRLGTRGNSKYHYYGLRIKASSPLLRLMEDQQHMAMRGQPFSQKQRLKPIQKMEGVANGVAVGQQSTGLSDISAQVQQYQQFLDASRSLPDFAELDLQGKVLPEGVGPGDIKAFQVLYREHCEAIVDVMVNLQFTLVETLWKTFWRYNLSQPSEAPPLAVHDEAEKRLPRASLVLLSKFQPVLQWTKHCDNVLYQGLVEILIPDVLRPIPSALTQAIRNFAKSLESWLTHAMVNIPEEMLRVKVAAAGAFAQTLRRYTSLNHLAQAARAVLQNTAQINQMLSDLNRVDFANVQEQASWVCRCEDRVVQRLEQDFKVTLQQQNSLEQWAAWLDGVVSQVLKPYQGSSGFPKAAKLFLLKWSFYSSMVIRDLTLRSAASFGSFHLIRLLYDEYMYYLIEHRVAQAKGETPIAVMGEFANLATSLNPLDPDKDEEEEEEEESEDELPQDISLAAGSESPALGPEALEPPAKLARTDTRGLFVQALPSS

[4] = target: T3, Pou4f3 (mouse (endogenous in cochlea)) (UniProt Q63955)
T3 sequence: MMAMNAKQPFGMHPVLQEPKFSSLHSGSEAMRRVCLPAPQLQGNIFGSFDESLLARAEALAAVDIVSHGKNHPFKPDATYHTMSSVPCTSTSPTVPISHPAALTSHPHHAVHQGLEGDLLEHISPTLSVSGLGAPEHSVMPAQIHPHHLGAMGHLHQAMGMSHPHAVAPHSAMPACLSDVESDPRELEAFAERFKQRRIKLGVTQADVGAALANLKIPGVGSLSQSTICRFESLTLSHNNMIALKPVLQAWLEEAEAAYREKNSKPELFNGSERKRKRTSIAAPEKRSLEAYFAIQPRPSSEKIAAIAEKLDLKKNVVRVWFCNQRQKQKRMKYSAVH

[5] = target: T4, Rfx3 (mouse (endogenous in cochlea)) (UniProt P48381)
T4 sequence: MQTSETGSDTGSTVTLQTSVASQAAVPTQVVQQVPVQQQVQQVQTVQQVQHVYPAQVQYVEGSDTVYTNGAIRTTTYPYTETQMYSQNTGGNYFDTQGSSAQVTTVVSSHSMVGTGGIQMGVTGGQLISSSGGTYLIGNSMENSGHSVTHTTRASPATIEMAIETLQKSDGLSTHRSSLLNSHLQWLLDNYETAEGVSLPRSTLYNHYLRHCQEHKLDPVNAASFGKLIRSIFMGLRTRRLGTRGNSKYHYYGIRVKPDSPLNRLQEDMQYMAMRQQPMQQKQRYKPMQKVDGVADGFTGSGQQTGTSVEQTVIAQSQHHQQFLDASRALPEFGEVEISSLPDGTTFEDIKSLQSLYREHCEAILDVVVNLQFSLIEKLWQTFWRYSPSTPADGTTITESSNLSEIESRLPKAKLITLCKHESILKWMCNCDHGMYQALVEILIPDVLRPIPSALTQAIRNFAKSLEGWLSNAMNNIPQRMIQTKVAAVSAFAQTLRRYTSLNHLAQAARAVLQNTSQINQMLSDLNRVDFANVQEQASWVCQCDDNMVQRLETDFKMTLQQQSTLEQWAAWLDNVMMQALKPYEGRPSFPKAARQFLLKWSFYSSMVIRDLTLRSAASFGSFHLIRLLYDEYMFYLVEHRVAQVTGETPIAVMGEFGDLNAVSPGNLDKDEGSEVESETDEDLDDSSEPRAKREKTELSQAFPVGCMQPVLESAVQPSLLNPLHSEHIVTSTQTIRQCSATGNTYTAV

[6] = target: T5, Atoh1 (mouse (endogenous in cochlea)) (UniProt P48985)
T5 sequence: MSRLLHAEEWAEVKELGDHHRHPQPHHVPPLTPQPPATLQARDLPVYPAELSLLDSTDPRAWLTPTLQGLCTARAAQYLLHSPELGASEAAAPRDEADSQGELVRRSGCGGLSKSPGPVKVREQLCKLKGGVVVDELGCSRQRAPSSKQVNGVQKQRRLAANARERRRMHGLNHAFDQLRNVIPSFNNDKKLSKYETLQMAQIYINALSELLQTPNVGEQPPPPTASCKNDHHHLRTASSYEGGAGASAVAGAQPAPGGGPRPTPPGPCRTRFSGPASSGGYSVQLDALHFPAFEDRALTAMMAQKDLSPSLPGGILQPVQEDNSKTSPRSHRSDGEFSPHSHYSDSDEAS

[7] = target: T6, Pbx1 (mouse (endogenous in cochlea)) (UniProt P41778)
T6 sequence: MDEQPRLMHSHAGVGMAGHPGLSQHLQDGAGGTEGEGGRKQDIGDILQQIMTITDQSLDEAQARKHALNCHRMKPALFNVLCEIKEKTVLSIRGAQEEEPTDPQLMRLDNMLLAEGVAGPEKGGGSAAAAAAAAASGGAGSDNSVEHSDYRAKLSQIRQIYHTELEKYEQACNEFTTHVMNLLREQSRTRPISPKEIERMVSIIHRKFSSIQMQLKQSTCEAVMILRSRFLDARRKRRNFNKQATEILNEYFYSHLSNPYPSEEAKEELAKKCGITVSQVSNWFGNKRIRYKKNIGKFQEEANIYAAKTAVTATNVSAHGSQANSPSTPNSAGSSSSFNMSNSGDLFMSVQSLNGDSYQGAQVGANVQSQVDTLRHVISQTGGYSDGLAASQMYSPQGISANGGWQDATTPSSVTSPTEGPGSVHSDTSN

binding [1]: binds | binding [2]: binds | binding [3]: binds | binding [4]: binds | binding [5]: binds | binding [6]: binds | binding [7]: binds
B1: Six1 (protein, UniProt Q62231 1-284)
chain: MSMLPSFGFTQEQVACVCEVLQQGGNLERLGRFLWSLPACDHLHKNESVLKAKAVVAFHRGNFRELYKILESHQFSPHNHPKLQQLWLKAHYVEAEKLRGRPLGAVGKYRVRRKFPLPRTIWDGEETSYCFKEKSRGVLREWYAHNPYPSPREKRELAEATGLTTTQVSNWFKNRRQRDRAAEAKERENTENNNSSSNKQNQLSPLEGGKPLMSSSEEEFSPPQSPDQNSVLLLQSNMGHARSSNYSLPGLTASQPSHGLQAHQHQLQDSLLGPLTSSLVDLGS

— article PMC7102962
